# Experimental data from patent US20160185832A1.
# Chains of the proteins cited; added tags and fusions are not shown. Lines headed by an entry give the natural chain unless they say otherwise; changes in a name come on top.
# UniProt P81947: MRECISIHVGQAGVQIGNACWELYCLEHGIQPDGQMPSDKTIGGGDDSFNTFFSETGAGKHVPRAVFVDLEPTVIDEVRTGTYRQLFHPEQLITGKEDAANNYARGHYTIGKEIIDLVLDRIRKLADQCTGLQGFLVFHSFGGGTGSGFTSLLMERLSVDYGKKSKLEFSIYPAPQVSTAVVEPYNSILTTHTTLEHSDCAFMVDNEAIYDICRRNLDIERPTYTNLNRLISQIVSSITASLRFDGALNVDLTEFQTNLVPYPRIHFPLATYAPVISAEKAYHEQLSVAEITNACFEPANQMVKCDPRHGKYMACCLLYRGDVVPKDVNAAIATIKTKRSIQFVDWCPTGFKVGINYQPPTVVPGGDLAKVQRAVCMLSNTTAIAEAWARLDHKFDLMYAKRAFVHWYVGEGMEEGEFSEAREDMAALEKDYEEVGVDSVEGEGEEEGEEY
# UniProt Q6B856: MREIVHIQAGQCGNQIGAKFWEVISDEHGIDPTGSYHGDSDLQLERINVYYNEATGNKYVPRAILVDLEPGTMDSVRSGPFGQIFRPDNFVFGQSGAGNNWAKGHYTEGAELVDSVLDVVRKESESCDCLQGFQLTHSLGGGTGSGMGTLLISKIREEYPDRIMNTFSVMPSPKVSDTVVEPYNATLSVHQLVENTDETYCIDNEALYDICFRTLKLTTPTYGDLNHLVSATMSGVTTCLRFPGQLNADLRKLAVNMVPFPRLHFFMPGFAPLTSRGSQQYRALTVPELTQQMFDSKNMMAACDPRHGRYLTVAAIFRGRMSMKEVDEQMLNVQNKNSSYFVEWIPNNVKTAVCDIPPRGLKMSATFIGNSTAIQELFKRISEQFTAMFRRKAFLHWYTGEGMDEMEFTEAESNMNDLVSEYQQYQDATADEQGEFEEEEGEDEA
# No constants are given. Whether binding was seen depends on the method and setting. Some results given as binding are weak or reduced against the parent protein; the word gives no strength. Tags and fused reporters may be left off the sequences shown.
# Tests used:
# [1] = biological target: T1, pure, pre-polymerized, taxol-stabilized microtubules of bovine tubulin (Cytoskeleton) (bovine) (UniProt P81947+Q6B856); assay: microtubule co-sedimentation with purified protein, Coomassie gel (FIG. 4E)
# [2] = biological target: T1, pure, pre-polymerized, taxol-stabilized microtubules of bovine tubulin (Cytoskeleton) (bovine); assay: microtubule co-sedimentation with purified protein and increasing microtubules
# [3] = biological target: T1, pure, pre-polymerized, taxol-stabilized microtubules of bovine tubulin (Cytoskeleton) (bovine); assay: in vitro microtubule co-sedimentation of in vitro translated GFP fusions, western blot
binding [1],binding [2],binding [3],Binder
binds,binds,–,"6×His tagged CEP290 truncation M (aa 1695-1966), recombinantly expressed and purified (protein, not shown: small tags and cut ends) DQSQKESQCLKSELQAQKEANSRAPTTTMRNLVERLKSQLALKEKQQKALSRALLELRAEMTAAAEERIISATSQKEAHLNVQQIVDRHTRELKTQVEDLNENLLKLKEALKTSKNRENSLTDNLNDLNNELQKKQKAYNKILREKEEIDQENDELKRQIKRLTSGLQGKPLTDNKQSLIEELQRKVKKLENQLEGKVEEVDLKPMKEKNAKEELIRWEEGKKWQAKIEGIRNKLKEKEGEVFTLTKQLNTLKDLFAKADKEKLTLQRKLKT"
–,–,binds,"GFP fusion of CEP290 aa 580-1966 (protein, not shown: large carriers) TENISQGDRISERKLDLLSLKNMSEAQSKNEFLSRELIEKERDLERSRTVIAKFQNKLKELVEENKQLEEGMKEILQAIKEMQKDPDVKGGETSLIIPSLERLVNAIESKNAEGIFDASLHLKAQVDQLTGRNEELRQELRESRKEAINYSQQLAKANLKIDHLEKETSLLRQSEGSNVVFKGIDLPDGIAPSSASIINSQNEYLIHLLQELENKEKKLKNLEDSLEDYNRKFAVIRHQQSLLYKEYLSEKETWKTESKTIKEEKRKLEDQVQQDAIKVKEYNNLLNALQMDSDEMKKILAENSRKITVLQVNEKSLIRQYTTLVELERQLRKENEKQKNELLSMEAEVCEKIGCLQRFKEMAIFKIAALQKVVDNSVSLSELELANKQYNELTAKYRDILQKDNMLVQRTSNLEHLECENISLKEQVESINKELEITKEKLHTIEQAWEQETKLGNESSMDKAKKSITNSDIVSISKKITMLEMKELNERQRAEHCQKMYEHLRTSLKQMEERNFELETKFAELTKINLDAQKVEQMLRDELADSVSKAVSDADRQRILELEKNEMELKVEVSKLREISDIARRQVEILNAQQQSRDKEVESLRMQLLDYQAQSDEKSLIAKLHQHNVSLQLSEATALGKLESITSKLQKMEAYNLRLEQKLDEKEQALYYARLEGRNRAKHLRQTIQSLRRQFSGALPLAQQEKFSKTMIQLQNDKLKIMQEMKNSQQEHRNMENKTLEMELKLKGLEELISTLKDTKGAQKVINWHMKIEELRLQELKLNRELVKDKEEIKYLNNIISEYERTISSLEEEIVQQNKFHEERQMAWDQREVDLERQLDIFDRQQNEILNAAQKFEEATGSIPDPSLPLPNQLEIALRKIKENIRIILETRATCKSLEEKLKEKESALRLAEQNILSRDKVINELRLRLPATAEREKLIAELGRKEMEPKSHHTLKIAHQTIANMQARLNQKEEVLKKYQRLLEKAREEQREIVKKHEEDLHILHHRLELQADSSLNKFKQTAWDLMKQSPTPVPTNKHFIRLAEMEQTVAEQDDSLSSLLVKLKKVSQDLERQREITELKVKEFENIKLQLQENHEDEVKKVKAEVEDLKYLLDQSQKESQCLKSELQAQKEANSRAPTTTMRNLVERLKSQLALKEKQQKALSRALLELRAEMTAAAEERIISATSQKEAHLNVQQIVDRHTRELKTQVEDLNENLLKLKEALKTSKNRENSLTDNLNDLNNELQKKQKAYNKILREKEEIDQENDELKRQIKRLTSGLQGKPLTDNKQSLIEELQRKVKKLENQLEGKVEEVDLKPMKEKNAKEELIRWEEGKKWQAKIEGIRNKLKEKEGEVFTLTKQLNTLKDLFAKADKEKLTLQRKLKT"
–,–,binds,"GFP fusion of CEP290 aa 1695-1966 (region M) (protein, not shown: large carriers) DQSQKESQCLKSELQAQKEANSRAPTTTMRNLVERLKSQLALKEKQQKALSRALLELRAEMTAAAEERIISATSQKEAHLNVQQIVDRHTRELKTQVEDLNENLLKLKEALKTSKNRENSLTDNLNDLNNELQKKQKAYNKILREKEEIDQENDELKRQIKRLTSGLQGKPLTDNKQSLIEELQRKVKKLENQLEGKVEEVDLKPMKEKNAKEELIRWEEGKKWQAKIEGIRNKLKEKEGEVFTLTKQLNTLKDLFAKADKEKLTLQRKLKT"
